Experimental data: patent US12005123B2 (CAREGEN CO., LTD., priority 2017, dated 2024)
Where a sequence shows no end group, the ends are not given.

Assay: general procedure: Fmoc solid-phase peptide synthesis; chlorotrityl chloride resin; Bop/HoBt/DIEA
Conditions: whole synthesis

RRLIDRTNANFLVM
crude mass: 1.49 g | crude yield (scale of the general procedure 700 mg resin): 86.5%
